Data reported in US20130251724A1.
These are yes or no findings as the source states them, for the method shown. Binding can be weak; no strength is given.

Target: Marmoset OSM (marmoset)
Experiment: Kinexa solution phase affinity

binding: binds
B1: 15E10h, non-competitive anti-OSM humanised antibody (antibody, human IgG1, kappa, V domains shown)
VH: QVQLVESGGGVVQPGRSLRLSCAASGFSLTNYGVHWVRQAPGKGLEWVAVIWRGGSTDYNAAFMSRFTISKDNSKNTLYLQMNSLRAEDTAVYYCAKSPNSNFYWYFDVWGRGTLVTVSS
VL: EIVLTQSPATLSLSPGERATLSCSGSSSVSYMYWYQQKPGQAPRLLIEDTSNLASGIPARFSGSGSGTDYTLTISNLEPEDFAVYYCQQWSSYPPTFGQGTKLEIKR
